Data as given in PubChem BioAssay AID540276 (National Center for Advancing Translational Sciences (NCATS), 2011).
Out of some 300,000 compounds screened, about 5,400 (1.8%) were called active. This list was built around the results that the source calls inconclusive (neither active nor inactive); the mix of calls is not that of the screen. Calls come from the whole dose curve; tested in HEK293 cells. Potencies beside an inconclusive call are fits to weak or partial responses and may not hold up.

test: qHTS for inhibitors of binding or entry into cells for Marburg Virus; details: Marburg virus pseudotyped entry inhibition, cell reporter; series mostly up to 37.8 µM
Potency is the fitted concentration of half-maximal effect.

SMILES	Potency
O=C(CN(Cc1ccccc1)C1=NCCS1)c1ccc(Cl)cc1	inconclusive: 14.6 µM [inhibitor, partial curve, poor fit]
C=CCc1cc(/C=C/c2nc(O)c([N+](=O)[O-])c(=O)[nH]2)cc(OC)c1O	inconclusive: 14.1 µM [activator, single point]
CCn1c(SCC(=O)N2CCc3ccccc32)nnc1-c1c[nH]c2ccccc12	inconclusive: 17.8 µM [inhibitor, partial curve, poor fit]
COc1ccc(C(=O)/C=C/c2ccc(OC(=O)c3cc(OC)c(OC)c(OC)c3)cc2)cc1	inconclusive: 6.31 µM [inhibitor, single point]
CC(=O)c1ccc(NC(=O)Cn2nc(C(F)(F)F)c3c2CCCC3)cc1	inactive
Nc1nonc1-c1noc(CCCN2C(=O)c3ccccc3C2=O)n1	inconclusive: 10 µM [activator, partial curve]
COc1cccc(CN(C(=O)c2cccc(C)c2)C2CCS(=O)(=O)C2)c1 (stereo unspecified)	inconclusive: 5.62 µM [inhibitor, single point]
Nc1ccc(C(=O)NCCCSc2ccccc2)cc1[N+](=O)[O-]	inactive
COc1cccc(-c2nn(-c3ccccc3)cc2CNC(C)Cn2cncn2)c1 (stereo unspecified)	inconclusive: 0.562 µM [inhibitor, full curve, poor fit]
CCCC(=O)c1ccc(N2CCCCCC2)c(F)c1	inconclusive: 0.891 µM [activator, single point]
O=C(CNc1ccc(Cl)cc1)NNC(=S)NCc1ccccc1	inconclusive: 7.08 µM [inhibitor, partial curve, poor fit]
Cc1cnc(NC(=O)COc2cccc3c2OC(C)(C)C3)s1	inconclusive: 1.26 µM [inhibitor, single point]
CC1(C)C(=O)C2(CCCCC2)C(=O)OC1c1cccn1-c1ccc([N+](=O)[O-])cc1 (stereo unspecified)	inactive
COc1ccc(OCC(O)CN2CCN(c3ncccn3)CC2)cc1 (stereo unspecified)	inconclusive: 14.1 µM [activator, partial curve, poor fit]
O=C(NCCc1ccc(F)cc1)c1cc(=O)c2ccccc2o1	inactive
COc1ccc(NCc2ccc([N+](=O)[O-])s2)c(OC)c1	inactive
CCCS(=O)(=O)N1CCN(S(=O)(=O)c2ccccc2[N+](=O)[O-])CC1	inactive
O=C(Nc1ccncc1)c1cccn(Cc2ccccc2)c1=O	inconclusive: 2.24 µM [inhibitor, full curve]
Cc1cccc(NC(=O)CSc2nc3ccccc3o2)c1	inconclusive: 0.164 µM [inhibitor, full curve, poor fit]
COc1ccc(C(=O)N2CCSC2=S)cc1OC	inconclusive: 6.31 µM [inhibitor, full curve]
COc1ccccc1C(=O)NNC(=O)C1CC=CCC1 (stereo unspecified)	inconclusive: 35.5 µM [activator, single point]
CCN(CCCNC(=O)Cn1ncc2c([nH]c3ccc(C)cc32)c1=O)Cc1ccccc1	inconclusive: 0.316 µM [inhibitor, full curve, poor fit]

SMILES	Potency
CC1CCCN(C(=O)CCNC(=O)Cn2cnc3ccccc3c2=O)C1 (stereo unspecified)	inconclusive: 35.5 µM [inhibitor, single point]
CC1CCN(CC(=O)Nc2cccc(C(=O)Nc3cccc(C(F)(F)F)c3)c2)CC1	active: 8.91 µM
Cc1csc(SCC(=O)NC(=O)c2ccccc2)n1	inactive
CC1OC(OC2C(O)CC(OC3C(O)CC(OC4CCC5(C)C(CCC6C5CCC5(C)C(C7=CC(=O)OC7)C(O)CC65O)C4)OC3C)OC2C)CC(O)C1O (stereo unspecified)	inconclusive: 0.126 µM [inhibitor, full curve, poor fit]
COc1ccc(S(=O)(=O)N2CCCCC2)cc1NC(=O)C1CC(=O)N(c2ccc3c(c2)OCCO3)C1 (stereo unspecified)	inconclusive: 35.5 µM [inhibitor, single point]
CN(C)CCN=Cc1c(O)n(Cc2ccc3c(c2)OCO3)c(=S)[nH]c1=O	inconclusive: 25.1 µM [inhibitor, single point]
Cc1onc(-c2c(Cl)cccc2Cl)c1C(=O)Nc1ccc(Cl)cn1	inconclusive: 35.5 µM [inhibitor, single point]
CC(C)(C)OC(=O)N/N=C\c1ccc(OC(=O)c2cccs2)cc1	inconclusive: 0.562 µM [activator, partial curve, poor fit]
CCn1c(=O)n(CC(=O)NCc2ccco2)c(=O)c2ccccc21	inconclusive: 1.26 µM [inhibitor, single point]
COc1ccc(CSc2nnnn2Cc2ccccc2)cc1OC	inconclusive: 25.9 µM [inhibitor, partial curve, poor fit]
CC(C)Oc1ccc(C(=O)Nc2nonc2-c2ccc(OC(C)C)cc2)cc1	inactive
COc1ccc(N2CCN(c3oc(Cc4ccccc4)nc3C#N)CC2)cc1	inconclusive: 29.1 µM [inhibitor, single point]
COc1ccc(NC(=S)NCc2ccccn2)cc1OC	inconclusive: 20 µM [activator, single point]
Cc1ccc(N2C(S)=C(C#N)C(=O)NC23CCCCC3)cc1	inactive
O=C(Cc1ccccc1)Nc1cc([N+](=O)[O-])ccc1N1CCOCC1	inconclusive: 0.126 µM [inhibitor, full curve, poor fit]
CCCNC(=O)c1ccccc1NS(=O)(=O)c1ccc2c(c1)OCCO2	inactive
N=c1c2c(n(Cc3ccccc3)c3c1CCC3)CCC2	inconclusive: 10 µM [inhibitor, partial curve]
Cc1ccc(S(=O)(=O)c2c(O)cc(C)c(NS(=O)(=O)c3ccc(Br)cc3)c2C)cc1	inconclusive: 35.5 µM [inhibitor, single point]
COc1ccc(NC(=O)c2cc(-c3ccncc3)nc3ccc(Br)cc23)cc1OC	inconclusive: 10 µM [inhibitor, partial curve, poor fit]
COc1ccc(C2Nc3ccccc3C(=O)N2Cc2ccco2)cc1COc1ccc(F)cc1 (stereo unspecified)	inconclusive: 14.1 µM [inhibitor, single point]
CCOC(=O)C1=C(N)Oc2cc(C)n(CCc3ccc(OC)c(OC)c3)c(=O)c2C1c1cccnc1 (stereo unspecified)	inconclusive: 35.5 µM [inhibitor, single point]
O=C(COC(=O)CNC(=O)c1ccc(Cl)cc1Cl)Nc1ccc(N2CCOCC2)cc1	inconclusive: 35.5 µM [activator, single point]

Given bar-delimited: entries from further up.
SMILES | Potency
COc1ccc(OCC(O)CN2CCN(c3ncccn3)CC2)cc1 (stereo unspecified) | inconclusive: 14.1 µM [activator, partial curve, poor fit]
COc1ccc(NC(=O)c2cc(-c3ccncc3)nc3ccc(Br)cc23)cc1OC | inconclusive: 10 µM [inhibitor, partial curve, poor fit]
CCOC(=O)C1=C(N)Oc2cc(C)n(CCc3ccc(OC)c(OC)c3)c(=O)c2C1c1cccnc1 (stereo unspecified) | inconclusive: 35.5 µM [inhibitor, single point]

Continuation:

SMILES	Potency
CSc1ccc(CN(C)C(C)C(=O)NCC2CCCCC2)cc1 (stereo unspecified)	active: 11.2 µM
CC(CCc1ccccc1)NC(=O)c1ccc(NC(=O)c2ccccc2)cc1 (stereo unspecified)	inconclusive: 5.01 µM [inhibitor, full curve, poor fit]
O=C(COC(=O)Cc1cn2ccsc2n1)NCc1ccc2c(c1)OCO2	inactive
O=C(/C=C/c1ccc2c(c1)OCO2)c1ccc(O)cc1O	inconclusive: 10 µM [inhibitor, partial curve, poor fit]
COc1ccc(C(=O)C2CCCN(C(=O)Cn3ccc(C)n3)C2)cc1OC (stereo unspecified)	inconclusive: 20 µM [inhibitor, partial curve, poor fit]
COc1ccc(N2CCN(C(=O)c3cc(-c4cccs4)nc4ccccc34)CC2)cc1	active: 11.2 µM
Cc1ncc(CN2CCN(C3CCCC3)C(CCO)C2)s1 (stereo unspecified)	inconclusive: 3.16 µM [inhibitor, single point]
c1ccc(Nc2nc(-c3cccnc3)cs2)nc1	inconclusive: 12.6 µM [inhibitor, single point]
COc1ccccc1C(CNC(=O)c1cccc(NS(=O)(=O)c2ccc(C)c(F)c2)c1)N1CCCC1 (stereo unspecified)	inconclusive: 35.5 µM [inhibitor, single point]
Nc1cnc(Br)cc1Br	inconclusive: 1.26 µM [inhibitor, single point]
CCOC(=O)Cn1nc(C)c(-c2ccccc2)c1N	inactive
COc1ccc2oc(C(=O)NCCC(C)C)c(C)c2c1	inconclusive: 0.708 µM [activator, partial curve, poor fit]
Cc1ccc(N(CC(=O)NC2CCCCC2)C(=O)CCCC(=O)Nc2ccccn2)c(C)c1	inconclusive: 35.5 µM [inhibitor, single point]
CC1(C)CC(C(=O)NCCC(c2ccccc2)c2ccco2)CCO1 (stereo unspecified)	inconclusive: 1.41 µM [inhibitor, partial curve, poor fit]
Cc1ccc(N=Cc2c(C)[nH]n(-c3nc4ccccc4[nH]3)c2=O)cc1	inconclusive: 12.6 µM [inhibitor, partial curve, poor fit]
CCC(C(=O)Nc1cccc(Cl)c1C)n1nc(C)c2sc3ccccc3c2c1=O (stereo unspecified)	inactive
CC(Sc1nc(N)cc(=O)[nH]1)C(=O)Nc1sc2c(c1C#N)CCCC2 (stereo unspecified)	inconclusive: 5.62 µM [inhibitor, partial curve, poor fit]
COC(=O)[C@@]1(Cc2ccc(F)cc2)[C@H]2c3cc(C(=O)N(C)C)n(Cc4nc5ccccc5[nH]4)c3C[C@H]2CN1C(=O)c1ccccc1	inactive
Cc1ccccc1C(=O)Oc1cccc(Nc2ncnc3ccccc23)c1	active: 11.2 µM
O=C(Nc1nnc(-c2ccncc2)o1)c1ccccc1	inactive
O=C(NC(=S)Nc1ccccn1)c1ccc([N+](=O)[O-])cc1	inconclusive: 1.78 µM [activator, partial curve, poor fit]
CCOC(=O)c1c(NC(=O)C2CCCN(S(=O)(=O)c3ccc(C)cc3)C2)sc2c1CCCC2 (stereo unspecified)	inconclusive: 35.5 µM [inhibitor, single point]
